The text below walks through data of PubChem BioAssay AID248 (DTP/NCI, 2004).

The experiment concerns L1210 leukemia ip in BDF1 mice, survival T/C. Description: NCI In Vivo Anticancer Drug Screen. Data for tumor model L1210 Leukemia (intraperitoneal) in B6D2F1 (BDF1) mice. As to conditions: T/C endpoint: mean survival time, higher T/C = longer survival.
Setting [1] is: dose: 200.0 mg/kg/injection, schedule: Q01DX009 (ip), vehicle: Klucel (hydroxypropylcellulose) (HPC).
[2] abbreviates: dose: 400.0 mg/kg/injection, schedule: Q01DX009 (ip), vehicle: Klucel (hydroxypropylcellulose) (HPC).
Setting [3] is: dose: 200.0 mg/kg/injection, schedule: Q04DX003 (ip), vehicle: saline with Tween-80.
Setting [4] is: dose: 400.0 mg/kg/injection, schedule: Q04DX003 (ip), vehicle: saline with Tween-80.
[5] abbreviates: dose: 400.0 mg/kg/injection, schedule: Q04DX003 (ip), vehicle: Klucel (hydroxypropylcellulose) (HPC).
Where [6] appears, read: dose: 400.0 mg/kg/injection, schedule: Q04DX002 (ip), vehicle: Klucel (hydroxypropylcellulose) (HPC).

The list does not hold the whole screen: it gathers tests that were run many times, whatever their T/C, doses with no T/C, and many T/C values between a quarter and a half above the control. Further doses and runs are listed elsewhere. T/C: endpoint of the treated group in % of that of the vehicle group. Some entries give survivors of the animals treated and no T/C: the source holds a T/C of zero for them, seemingly a mark for toxic or unscored doses. Some doses without a T/C left all or most animals alive at the check, yet need not have been tolerated: survival well below the control is almost never listed, so the zero probably covers shortened survival too. Survivors were counted at the toxicity check, usually on the fifth day, unless a day is given; later deaths do not show. Schedule codes are those of the source, taken here to give the interval after Q, in days (D) or hours (H), and the number of doses after X. Some doses were run more than once; the values are given in rising order. For survival time, the PubChem record calls one and a half times the control and up active, and a quarter to a half above the control has no call in these data; cut-offs in other NCI protocols can differ.

As for `Cn1nc(NC(=O)C(F)(F)F)c2ncc(-c3ccccc3)nc21`, the survivor count (dose: 400.0 mg/kg/injection, schedule: Q01DX009 (ip), vehicle: saline with Tween-80) is 3 of 6.
Consider `CC(=O)Oc1ccc(Nc2c3ccccc3nc3ccccc23)cc1`, for which, for the setting “dose: 50.0 mg/kg/injection, schedule: Q04DX002 (ip), vehicle: saline with Tween-80”, the T/C is 145 % of control. The survivor count (dose: 200.0 mg/kg/injection, schedule: Q04DX002 (ip), vehicle: saline with Tween-80) is 3 of 3 and the survivor count (dose: 225.0 mg/kg/injection, schedule: Q04DX003 (ip), vehicle: saline with Tween-80) was 1 of 10.
On to `CC(Oc1cc(Cl)c(Cl)cc1Cl)C(=O)OCCCc1ccccn1` (configuration not stated), for which the T/C under setting [1] was 125 % of control. Also, the survivor count under setting [2] is 1 of 3 and 3 of 6.
For the molecule `CCOC(=O)c1ccc(N(Cc2cccc([N+](=O)[O-])c2)S(=O)(=O)c2ccc(C)cc2)cc1`, the survivor count (dose: 300.0 mg/kg/injection, schedule: Q01DX001 (ip), vehicle: saline with Tween-80) was 6 of 6.
On to `CN(C)CCSC1=CC(=O)c2ccccc2C1=O`, for which the survivor count is, setting by setting: (dose: 3.12 mg/kg/injection, schedule: Q01DX009 (ip), vehicle: water) 3 of 6; (dose: 6.25 mg/kg/injection, schedule: Q01DX009 (ip), vehicle: water) 1 of 6; (dose: 12.5 mg/kg/injection, schedule: Q01DX009 (ip), vehicle: water) 0 of 6; (dose: 25.0 mg/kg/injection, schedule: Q01DX009 (ip), vehicle: water) 0 of 6; (dose: 50.0 mg/kg/injection, schedule: Q01DX009 (ip), vehicle: water) 0 of 6; (dose: 100.0 mg/kg/injection, schedule: Q01DX009 (ip), vehicle: water) 0 of 6. In addition, the survivor count is reported as 0 of 6 (dose: 200.0 mg/kg/injection, schedule: Q01DX009 (ip), vehicle: water) and 0 of 6 (dose: 400.0 mg/kg/injection, schedule: Q01DX009 (ip), vehicle: water).
For the molecule `Nc1nc2c(ncn2-c2ccc(NS(=O)(=O)c3cccc(S(=O)(=O)F)c3)cc2)c(=O)[nH]1`, the survivor count (dose: 150.0 mg/kg/injection, schedule: Q01DX001 (ip), vehicle: Klucel (hydroxypropylcellulose) (HPC)) was 6 of 6.
Consider `CCOC(=O)C(C#N)S(C)(=O)=O` (configuration not stated), for which the survivor count (dose: 400.0 mg/kg/injection, schedule: Q01DX001 (ip), vehicle: saline) is given as 0 of 3.
On to `Cc1ccc(NC(=O)N(CCCl)N=O)cc1NC(=O)N(CCCl)N=O`, for which the T/C (dose: 177.0 mg/kg/injection, schedule: Q01DX009 (ip), vehicle: carboxymethylcellulose (CMC)) was 144 % of control.
`CCN(CC)c1ccc(N(C(C)=O)C(C)=O)cc1`: the survivor count is listed as 6 of 6 (dose: 100.0 mg/kg/injection, schedule: Q04DX003 (ip), vehicle: saline with Tween-80); 1 of 6 under setting [3]; 0 of 6 under setting [4].
For the molecule `CCCCCCCCCC(=O)N/N=C/c1ccco1`, the survivor count under setting [2] is 4 of 6.
For the molecule `CCCCCCC(=O)N1CCOCC1`, the survivor count is, setting by setting: (dose: 200.0 mg/kg/injection, schedule: Q04DX002 (ip), vehicle: saline) 2 of 3; (dose: 400.0 mg/kg/injection, schedule: Q04DX002 (ip), vehicle: saline) 0 of 3.
Turning to `N#Cc1cncc(-c2ccccc2)c1`, the survivor count by setting is: (dose: 100.0 mg/kg/injection, schedule: Q04DX003 (ip), vehicle: Klucel (hydroxypropylcellulose) (HPC)) 3 of 6; (dose: 200.0 mg/kg/injection, schedule: Q04DX003 (ip), vehicle: Klucel (hydroxypropylcellulose) (HPC)) 2 of 6; under setting [5], 3 of 6.
Consider `Cc1noc2c1CCCC2`, for which the survivor count (dose: 400.0 mg/kg/injection, schedule: Q04DX003 (ip), vehicle: carboxymethylcellulose (CMC)) is recorded as 1 of 6.
Consider `Cc1ccc(C)c(NC(=O)NCc2ccc(Cl)cc2)c1`, for which the survivor count under setting [3] is on record as 6 of 6.
For `CCCCCCCCCC(=O)N1CCOCC1`, the survivor count runs as follows: (dose: 100.0 mg/kg/injection, schedule: Q01DX009 (ip), vehicle: saline) 2 of 6; (dose: 200.0 mg/kg/injection, schedule: Q04DX003 (ip), vehicle: saline) 5 of 6; (dose: 400.0 mg/kg/injection, schedule: Q04DX003 (ip), vehicle: saline) 6 of 6.
As to `CN(C)c1ccc(/C=C/c2cnccn2)cc1`, the survivor count (dose: 50.0 mg/kg/injection, schedule: Q01DX009 (ip), vehicle: Klucel (hydroxypropylcellulose) (HPC)) is listed as 6 of 6; the survivor count (dose: 100.0 mg/kg/injection, schedule: Q01DX009 (ip), vehicle: Klucel (hydroxypropylcellulose) (HPC)) was 6 of 6; the survivor count under setting [1] was 2 of 6; the survivor count under setting [5] was 6 of 6.
With `CC(C)(C)CC(C)(C)c1ccc(OCCOS(=O)(=O)c2cccc([N+](=O)[O-])c2)cc1`, under setting [4], the survivor count was 5 of 6.
Turning to `O=C1C=CC(=O)N1c1ccc(Cl)cc1`, the survivor count reads like this: (dose: 10.0 mg/kg/injection, schedule: Q01DX009 (ip), vehicle: Klucel (hydroxypropylcellulose) (HPC)) 3 of 6; (dose: 20.0 mg/kg/injection, schedule: Q01DX009 (ip), vehicle: Klucel (hydroxypropylcellulose) (HPC)) 4 of 6; (dose: 40.0 mg/kg/injection, schedule: Q01DX009 (ip), vehicle: Klucel (hydroxypropylcellulose) (HPC)) 2 of 6; (dose: 60.0 mg/kg/injection, schedule: Q04DX003 (ip), vehicle: Klucel (hydroxypropylcellulose) (HPC)) 0 of 6; (dose: 90.0 mg/kg/injection, schedule: Q04DX003 (ip), vehicle: Klucel (hydroxypropylcellulose) (HPC)) 0 of 6; (dose: 135.0 mg/kg/injection, schedule: Q04DX003 (ip), vehicle: Klucel (hydroxypropylcellulose) (HPC)) 0 of 6.
On to `CCCCCCC(=O)CCCCCCCCCCCCC(=O)OC`, for which the survivor count (dose: 100.0 mg/kg/injection, schedule: Q01DX009 (ip), vehicle: saline with Tween-80) is 6 of 6 and the survivor count (dose: 200.0 mg/kg/injection, schedule: Q01DX009 (ip), vehicle: saline with Tween-80) was 6 of 6.
As for `O=CNC(CSC(c1ccccc1)c1ccccc1)C(=O)O` (configuration not stated), the survivor count (dose: 300.0 mg/kg/injection, schedule: Q01DX001 (ip), vehicle: Klucel (hydroxypropylcellulose) (HPC)) is on record as 3 of 6.
On to `O=S(=O)(N=S(CCCl)CCCl)c1ccccc1`, for which, under setting [6], the survivor count is reported as 1 of 3.
For `CCCCCCCCCN=C(N)CSSCC(N)=NCCCCCCCCC`, the survivor count (dose: 10.0 mg/kg/injection, schedule: Q04DX002 (ip), vehicle: Klucel (hydroxypropylcellulose) (HPC)) is 0 of 3; the survivor count (dose: 20.0 mg/kg/injection, schedule: Q04DX002 (ip), vehicle: Klucel (hydroxypropylcellulose) (HPC)) was 0 of 3; the survivor count (dose: 40.0 mg/kg/injection, schedule: Q04DX002 (ip), vehicle: Klucel (hydroxypropylcellulose) (HPC)) is recorded as 0 of 3; the survivor count (dose: 100.0 mg/kg/injection, schedule: Q01DX001 (ip), vehicle: Klucel (hydroxypropylcellulose) (HPC)) is given as 0 of 3; the survivor count (dose: 100.0 mg/kg/injection, schedule: Q04DX002 (ip), vehicle: Klucel (hydroxypropylcellulose) (HPC)) is 0 of 3; the survivor count (dose: 200.0 mg/kg/injection, schedule: Q01DX001 (ip), vehicle: Klucel (hydroxypropylcellulose) (HPC)) is given as 0 of 3. Further, the survivor count reads like this: (dose: 200.0 mg/kg/injection, schedule: Q04DX002 (ip), vehicle: Klucel (hydroxypropylcellulose) (HPC)) 0 of 3; (dose: 400.0 mg/kg/injection, schedule: Q01DX001 (ip), vehicle: Klucel (hydroxypropylcellulose) (HPC)) 0 of 3; under setting [6], 0 of 3.
For `O=C(/C=C/c1ccccc1)N1CCCCC1`, the survivor count under setting [6] was 3 of 3.
